{"source": "paper PMC3899953", "binders": {"B1": {"name": "HA-tagged Mks1 (pRS416-MKS1p-MKS1-HA, pZL1480) (protein, UniProt P34072 1-584)", "chain": "MSREAFDVPNIGTNKFLKVTPNLFTPERLNLFDDVELYLTLIKASKCVEQGERLHNISWRILNKAVLKEHNINRSKKRDGVKNIYYVLNPNNKQPIKPKQAAVKQPPLQKANLPPTTAKQNVLTRPMTSPAIAQGAHDRSLDNPNSTNNDVKNDVAPNRQFSKSTTSGLFSNFADKYQKMKNVNHVANKEEPQTIITGFDTSTVITKKPLQSRRSRSPFQHIGDMNMNCIDNETSKSTSPTLENMGSRKSSFPQKESLFGRPRSYKNDQNGQLSLSKTSSRKGKNKIFFSSEDEDSDWDSVSNDSEFYADEDDEEYDDYNEEEADQYYRRQWDKLLFAKNQQNLDSTKSSVSSANTINSNTSHDPVRKSLLSGLFLSEANSNSNNHNTAHSEYASKHVSPTPQSSHSNIGPQPQQNPPSANGIKQQKPSLKTSNVTALASLSPPQPSNNERLSMDIQKDFKTDNESNHLYESNAPLTAQTILPTALSTHMFLPNNIHQQRMAIATGSNTRHRFSRRQSMDIPSKNRNTGFLKTRMEISEEEKMVRTISRLDNTSIANSNGNGNDDTSNQRTEALGRKTSNGGRI"}}, "key": {"[1]": {"biological_target": "T1, myc-tagged Rtg2 (pRS415-RTG2-myc, pZL1951) (S. cerevisiae) (UniProt P32608)", "T1 sequence": "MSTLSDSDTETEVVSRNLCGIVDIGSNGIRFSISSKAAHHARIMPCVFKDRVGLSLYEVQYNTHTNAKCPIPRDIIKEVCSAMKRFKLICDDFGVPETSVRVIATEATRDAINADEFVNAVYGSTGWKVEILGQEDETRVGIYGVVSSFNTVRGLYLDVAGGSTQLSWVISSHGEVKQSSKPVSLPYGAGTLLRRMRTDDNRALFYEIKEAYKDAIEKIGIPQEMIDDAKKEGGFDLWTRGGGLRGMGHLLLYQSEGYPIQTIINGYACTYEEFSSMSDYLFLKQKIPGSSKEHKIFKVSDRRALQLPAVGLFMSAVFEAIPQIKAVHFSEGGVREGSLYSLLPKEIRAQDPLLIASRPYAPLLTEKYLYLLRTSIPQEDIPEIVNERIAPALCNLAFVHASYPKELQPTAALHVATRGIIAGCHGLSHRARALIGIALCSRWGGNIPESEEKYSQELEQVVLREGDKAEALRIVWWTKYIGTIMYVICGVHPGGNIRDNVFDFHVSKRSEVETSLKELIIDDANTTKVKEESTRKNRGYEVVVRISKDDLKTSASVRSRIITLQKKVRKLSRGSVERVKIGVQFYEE", "experiment": "co-IP; Rtg2-myc precipitated with anti-myc antibody 9E10 and protein G-Sepharose from yeast lysates (~1.6 mg protein) in IP buffer (20 mM Hepes-KOH pH 7.6, 150 mM KCl, 10 mM MgCl, 0.5% Triton X-100), 4 °C; Mks1-HA detected by anti-HA blot; in Figure 1 lysates were first incubated 1.5 h with 0, 1, 2 or 5 mM ATP, 5 mM ADP or 5 mM AMP-PNP"}, "[2]": {"biological_target": "T2, myc-tagged Rtg2 (RTG2-myc3, strain RBY915) (S. cerevisiae) (UniProt P32608)", "T2 sequence": "T1 sequence", "experiment": "co-IP; Rtg2-myc precipitated with anti-myc antibody 9E10 and protein G-Sepharose from yeast lysates (~1.6 mg protein) in IP buffer (20 mM Hepes-KOH pH 7.6, 150 mM KCl, 10 mM MgCl, 0.5% Triton X-100), 4 °C; Mks1-HA detected by anti-HA blot; in Figure 1 lysates were first incubated 1.5 h with 0, 1, 2 or 5 mM ATP, 5 mM ADP or 5 mM AMP-PNP"}}, "note": "No constants are given. Whether binding was seen depends on the method and setting. In cells and extracts the contact can be indirect. Some entries that bind do so weakly or less than the wild type. Tags and fused reporters may be left off the sequences shown."}
{"binder": "B1", "values": [{"measurement": "binding", "setting": "[1]", "result": "binds"}, {"measurement": "binding", "setting": "[2]", "result": "binds"}]}
